The exact form of at least one protein or probe is not confirmed. For part of these data: No signal at the amounts used counts as a negative.
Legend:
[1] = test system: Nla III modification methylase (Neisseria lactamica NRCC 2118); assay: activity in cells; details: methylated by Nla III methylase at CATG sites (position not given); in vivo modification protects plasmids from BspH I, Sph I and Nla III digestion; protein in cells; only the motif is given
[2] = test system: Nla III restriction endonuclease (Neisseria lactamica NRCC 2118); assay: enzyme reaction in vitro; details: protein in a lysate after overexpression, only the motif is given

Row | Sequence | activity on this sequence [1] | activity on this sequence ([2]; methylated by Nla III methylase at CATG sites (position not given), methylase clone plasmids resistant to Nla III digestion (also BspH I, Sph I), enzyme source for this digestion not stated) | activity on this sequence ([2]; crude extract, 37 C 1 h, about 2x10^4 units per gram of cells)
1 | CATG (double strand) [Nla III methylase clone plasmids modified in vivo] | active | not active | –
2 | CATG (double strand) [phage lambda DNA (CATG sites)] | – | – | active

Source: patent US5278060
